The target in this test is lamin LIII (X. laevis (endogenous in oocyte nuclei)) (UniProt P10999). In words: cryo-electron tomography; nuclear envelopes of X. laevis oocytes spread on carbon grids, washed with low-salt buffer, plunge-frozen; filaments assembled in situ.

No constants are given. Whether binding was seen depends on the method and setting. Some entries that bind do so weakly or less than the wild type.

B1: lamin LIII (protein, UniProt P10999 1-583)
chain: MATSTPSRAREHASAAQSPGSPTRISRMQEKEDLRHLNDRLAAYIERVRSLEADKSLLKIQLEEREEVSSREVTNLRQLYETELADARKLLDQTANERARLQVELGKVREEYRQLQARNSKKENDLSLAQNQLRDLESKLNTKEAELATALSGKRGLEEQLQEQRAQIAGLESSLRDTTKQLHDEMLWRVDLENKMQTIREQLDFQKNIHTQEVKEIKKRHDTRIVEIDSGRRVEFESKLAEALQELRRDHEQQILEYKEHLEKNFSAKLENAQLAAAKNSDYASATREEIMATKLRVDTLSSQLNHYQKQNSALEAKVRDLQDMLDRAHDMHRRQMTEKDREVTEIRQTLQGQLEEYEQLLDVKLALDMEINAYRKMLEGEEQRLKLSPSPSQRSTVSRASTSQTSRLLRGKKRKLDETGRSVTKRSYKVVQQASSTGPVSVEDIDPEGNYVRLLNNTEEDFSLHGWVVKRMHMSLPEIAFKLPCRFILKSSQRVTIWAAGAGAVHSPPTDLVWKSQKTWGTGDNIKITLLDSTGEECAERTLYRVIGEEGETDEDFVEEEELERQFRSQSHQSVDPSCSIM
modifications: farnesylated
With B1, the binding result is given as “binds”.

The values are drawn from paper PMC7718915.
